Data from patent US6998124 (GlaxoSmithKline, dated 2006).
These are yes or no findings as the source states them, for the method shown. Some binding calls cover weakened binding; strength is not graded here.

How the values were obtained:
[1] = molecular target: T1, soluble dimeric erythropoietin receptor (EpoRFc) (human) (UniProt P19235); test: BIAcore, EpoRFc captured on goat anti-human IgG Fc; Epo as competitor
T1 sequence (looked up): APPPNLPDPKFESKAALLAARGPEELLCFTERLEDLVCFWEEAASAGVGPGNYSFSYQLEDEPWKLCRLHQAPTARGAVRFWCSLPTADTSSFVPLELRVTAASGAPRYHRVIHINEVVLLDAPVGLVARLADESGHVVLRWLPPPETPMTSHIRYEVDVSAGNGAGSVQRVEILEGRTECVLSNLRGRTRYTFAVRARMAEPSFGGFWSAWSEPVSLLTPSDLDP

[2] = molecular target: T2, soluble monomeric erythropoietin receptor (EpoR) (human) (UniProt P19235); test: immunoassay, soluble EpoR (3 ug/ml) displaces the mAb from coated EpoR-Fc
T2 sequence (looked up): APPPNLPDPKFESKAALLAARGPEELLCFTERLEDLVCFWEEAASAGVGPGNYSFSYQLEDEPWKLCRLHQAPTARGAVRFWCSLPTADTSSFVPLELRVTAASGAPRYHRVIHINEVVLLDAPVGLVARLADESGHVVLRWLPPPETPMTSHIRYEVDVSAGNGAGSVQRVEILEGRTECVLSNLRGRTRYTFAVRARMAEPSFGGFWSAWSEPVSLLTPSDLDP

[3] = molecular target: T1, soluble dimeric erythropoietin receptor (EpoRFc) (human); test: immunoassay, EpoR-Fc coated at 0.5 ug/ml, Eu3+-labelled anti-mouse detection, with or without 3 ug/ml soluble EpoR

Measured: binding

B1: murine monoclonal antibody 3G9 (antibody, V domains shown)
VH: QVQLQQPGAELVKSGASVKLSCKASGSTFTSYWMHWVKQRPGRGLEWIGRIDPNSGGTKDNEKFKSKATLTVDKPSSTAYMQLSSLTSEDSAVYYCARETYYDSSFAYWGQGTLVTVSA
VL: DIVMTQSQKFMSTSVGDRVSVTCKASQNVGTNVAWYQQKPGQSPKALIYSASYRYSGVPDRFTGSGSGTDFTLTISNVQSEDLAEYFCQQYNSYPLTFGAGTKLELKR
modifications: amino terminus of the heavy chain blocked with pyroglutamic acid
notes: Mouse hybridoma antibody; also called 3G9 mAb; Mab 3G9
binds: all assays above
